Experimental data taken from PubChem BioAssay AID252 (DTP/NCI, 2004).
The list is a part of this screen's results and no random one: it is rich in T/C values a quarter to a half above the control, in often repeated tests (any T/C) and in doses without a T/C. Other doses and runs of a compound stand elsewhere. T/C is the treated group as % of the vehicle group. Some doses have a count of surviving animals in place of a T/C: the source files T/C as zero there, which appears to mark a toxic dose or a test without result, not a measured value. Some doses without a T/C left all or most animals alive at the check, yet need not have been tolerated: the source hardly ever lists a survival T/C far under the control, and the zero likely stands for such cases as well. Counts of survivors are from the toxicity check (mostly the fifth day) where no day follows; animals may have died later. Schedules are NCI's codes, read here as Q, the interval in days (D) or hours (H), X, the number of doses. Some schedule codes hold Z or #, which are not explained here. Some entries were tested several times; the results are listed from low to high. For survival time, the PubChem record calls one and a half times the control and up active, and a quarter to a half above the control has no call in these data; cut-offs in other NCI protocols can differ. Marks such as (2×) count equal records among those shown. Some T/C values are followed by the survivors on the day toxicity was checked, most often the fifth; without a count, all were alive then.

Tested on: BDF1 mice, intracerebral L1210 leukemia, survival T/C
Test: NCI In Vivo Anticancer Drug Screen. Data for tumor model L1210 Leukemia (intracerebral) in B6D2F1 (BDF1) mice
Conditions: higher T/C = longer survival
Procedure, shortened: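 Mice carrying transplanted tumour were dosed with compound; survival was recorded and expressed as treated-group value (T) divided by vehicle-control value (C).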

Which results are given for `O=P1(N(CCCl)CCCl)NCCCO1` (configuration not stated)?
T/C (T/C endpoint: mean survival time, dose: 23.0 mg/kg/injection, schedule: Q01DX009 (sc), vehicle: saline): 136 % of control; T/C (T/C endpoint: mean survival time, dose: 35.0 mg/kg/injection, schedule: Q01DX Z (ip), vehicle: saline): 127 % of control; T/C (T/C endpoint: mean survival time, dose: 50.0 mg/kg/injection, schedule: Q01DX001 (ip), vehicle: saline, evaluated on day 5): 106 and 110 % of control; T/C (T/C endpoint: mean survival time, dose: 50.0 mg/kg/injection, schedule: Q01DX001 (ip), vehicle: saline, evaluated on day 30): 100 % of control; T/C (T/C endpoint: mean survival time, dose: 50.0 mg/kg/injection, schedule: Q01DX001 (ip), vehicle: saline, evaluated on day 33): 103 % of control; T/C (T/C endpoint: mean survival time, dose: 50.0 mg/kg/injection, schedule: Q01DX001 (ip), vehicle: saline, evaluated on day 40): 106 % of control; T/C (T/C endpoint: mean survival time, dose: 50.0 mg/kg/injection, schedule: Q01DX015 (ip), vehicle: saline): 131 % of control; T/C (T/C endpoint: mean survival time, dose: 50.0 mg/kg/injection, schedule: Q01DX Z (ip), vehicle: saline): 130 and 139 % of control; T/C (T/C endpoint: mean survival time, dose: 59.0 mg/kg/injection, schedule: Q01DX001 (ip), vehicle: saline): 125 % of control; T/C (T/C endpoint: mean survival time, dose: 70.0 mg/kg/injection, schedule: Q01DX001 (ip), vehicle: saline, evaluated on day 7): 130 % of control; T/C (T/C endpoint: mean survival time, dose: 70.0 mg/kg/injection, schedule: Q01DX001 (ip), vehicle: saline, evaluated on day 20): 130 % of control; T/C (T/C endpoint: mean survival time, dose: 100.0 mg/kg/injection, schedule: Q01DX001 (ip), vehicle: saline, evaluated on day 5): 112 and 123 % of control; T/C (T/C endpoint: mean survival time, dose: 100.0 mg/kg/injection, schedule: Q01DX001 (ip), vehicle: saline, evaluated on day 21): 123 % of control; T/C (T/C endpoint: mean survival time, dose: 100.0 mg/kg/injection, schedule: Q01DX001 (ip), vehicle: saline, evaluated on day 30): 123 % of control; T/C (T/C endpoint: mean survival time, dose: 100.0 mg/kg/injection, schedule: Q01DX001 (ip), vehicle: saline, evaluated on day 33): 117 % of control; T/C (T/C endpoint: mean survival time, dose: 100.0 mg/kg/injection, schedule: Q01DX001 (ip), vehicle: saline, evaluated on day 40): 112 % of control; T/C (T/C endpoint: mean survival time, dose: 100.0 mg/kg/injection, schedule: Q08DX002 (ip), vehicle: saline): 126 % of control; T/C (T/C endpoint: mean survival time, dose: 101.0 mg/kg/injection, schedule: Q01DX001 (ip), vehicle: saline): 134 % of control; T/C (T/C endpoint: mean survival time, dose: 108.0 mg/kg/injection, schedule: Q01DX001 (ip), vehicle: saline, evaluated on day 7): 126 % of control; T/C (T/C endpoint: mean survival time, dose: 108.0 mg/kg/injection, schedule: Q01DX001 (ip), vehicle: saline, evaluated on day 26): 126 % of control; T/C (T/C endpoint: mean survival time, dose: 108.0 mg/kg/injection, schedule: Q08DX002 (ip), vehicle: saline, evaluated on day 6): 134 % of control; T/C (T/C endpoint: mean survival time, dose: 108.0 mg/kg/injection, schedule: Q08DX002 (ip), vehicle: saline, evaluated on day 7): 109 % of control; T/C (T/C endpoint: mean survival time, dose: 108.0 mg/kg/injection, schedule: Q08DX002 (ip), vehicle: saline, evaluated on day 27): 113 % of control; T/C (T/C endpoint: mean survival time, dose: 108.0 mg/kg/injection, schedule: Q08DX002 (ip), vehicle: saline, evaluated on day 45): 134 % of control; T/C (T/C endpoint: mean survival time, dose: 118.0 mg/kg/injection, schedule: Q01DX001 (ip), vehicle: saline): 134 % of control; T/C (T/C endpoint: mean survival time, dose: 140.0 mg/kg/injection, schedule: Q01DX001 (ip), vehicle: saline, evaluated on day 7): 132 % of control; T/C (T/C endpoint: mean survival time, dose: 140.0 mg/kg/injection, schedule: Q01DX001 (ip), vehicle: saline, evaluated on day 20): 132 % of control; T/C (T/C endpoint: mean survival time, dose: 154.0 mg/kg/injection, schedule: Q01DX001 (ip), vehicle: saline): 132 % of control; T/C (T/C endpoint: mean survival time, dose: 180.0 mg/kg/injection, schedule: Q01DX001 (ip), vehicle: saline, evaluated on day 7): 139 % of control; T/C (T/C endpoint: mean survival time, dose: 180.0 mg/kg/injection, schedule: Q01DX001 (ip), vehicle: saline, evaluated on day 26): 139 % of control; T/C (T/C endpoint: mean survival time, dose: 180.0 mg/kg/injection, schedule: Q08DX002 (ip), vehicle: saline, evaluated on day 6): 150 % of control; T/C (T/C endpoint: mean survival time, dose: 180.0 mg/kg/injection, schedule: Q08DX002 (ip), vehicle: saline, evaluated on day 7): 107 % of control; T/C (T/C endpoint: mean survival time, dose: 180.0 mg/kg/injection, schedule: Q08DX002 (ip), vehicle: saline, evaluated on day 27): 111 % of control; T/C (T/C endpoint: mean survival time, dose: 180.0 mg/kg/injection, schedule: Q08DX002 (ip), vehicle: saline, evaluated on day 45): 149 % of control; T/C (T/C endpoint: mean survival time, dose: 200.0 mg/kg/injection, schedule: Q01DX001 (ip), vehicle: DMSO): 133 and 142 % of control; T/C (T/C endpoint: mean survival time, dose: 200.0 mg/kg/injection, schedule: Q01DX001 (ip), vehicle: Klucel (hydroxypropylcellulose) (HPC)): 142 % of control; T/C (T/C endpoint: mean survival time, dose: 200.0 mg/kg/injection, schedule: Q01DX001 (ip), vehicle: saline, evaluated on day 5): 126 % of control (2×); T/C (T/C endpoint: mean survival time, dose: 200.0 mg/kg/injection, schedule: Q01DX001 (ip), vehicle: saline, evaluated on day 21): 124 % of control; T/C (T/C endpoint: mean survival time, dose: 200.0 mg/kg/injection, schedule: Q01DX001 (ip), vehicle: saline, evaluated on day 30): 126 % of control [7 of 8 alive]; T/C (T/C endpoint: mean survival time, dose: 200.0 mg/kg/injection, schedule: Q01DX001 (ip), vehicle: saline, evaluated on day 33): 122 % of control; T/C (T/C endpoint: mean survival time, dose: 200.0 mg/kg/injection, schedule: Q01DX001 (ip), vehicle: saline, evaluated on day 40): 126 % of control; T/C (T/C endpoint: mean survival time, dose: 200.0 mg/kg/injection, schedule: Q01DX001 (ip), vehicle: saline, evaluated on day 45): 124 % of control; survivor count (T/C endpoint: mean survival time, dose: 200.0 mg/kg/injection, schedule: Q01DX Z (ip), vehicle: saline): 6 of 6; T/C (T/C endpoint: mean survival time, dose: 200.0 mg/kg/injection, schedule: Q08DX002 (ip), vehicle: saline, evaluated on day 21): 132 % of control; T/C (T/C endpoint: mean survival time, dose: 200.0 mg/kg/injection, schedule: Q08DX002 (ip), vehicle: saline, evaluated on day 40): 127 % of control; T/C (T/C endpoint: mean survival time, dose: 234.0 mg/kg/injection, schedule: Q01DX001 (ip), vehicle: saline): 143 % of control [9 of 10 alive]; survivor count (T/C endpoint: mean survival time, dose: 250.0 mg/kg/injection, schedule: Q01DX Z (ip), vehicle: saline): 6 of 6; T/C (T/C endpoint: mean survival time, dose: 280.0 mg/kg/injection, schedule: Q01DX001 (ip), vehicle: saline, evaluated on day 7): 142 % of control; T/C (T/C endpoint: mean survival time, dose: 280.0 mg/kg/injection, schedule: Q01DX001 (ip), vehicle: saline, evaluated on day 20): 142 % of control; T/C (T/C endpoint: mean survival time, dose: 300.0 mg/kg/injection, schedule: Q01DX001 (ip), vehicle: saline): 139 % of control; T/C (T/C endpoint: mean survival time, dose: 300.0 mg/kg/injection, schedule: Q08DX002 (ip), vehicle: saline, evaluated on day 6): 85 % of control; T/C (T/C endpoint: mean survival time, dose: 300.0 mg/kg/injection, schedule: Q08DX002 (ip), vehicle: saline, evaluated on day 7): 101 % of control; T/C (T/C endpoint: mean survival time, dose: 300.0 mg/kg/injection, schedule: Q08DX002 (ip), vehicle: saline, evaluated on day 27): 105 % of control [6 of 8 alive]; survivor count (T/C endpoint: mean survival time, dose: 300.0 mg/kg/injection, schedule: Q08DX002 (ip), vehicle: saline): 3 of 8; survivor count (T/C endpoint: mean survival time, dose: 375.0 mg/kg/injection, schedule: Q01DX Z (ip), vehicle: saline): 1 of 6; survivor count (T/C endpoint: mean survival time, dose: 400.0 mg/kg/injection, schedule: Q01DX001 (ip), vehicle: DMSO): 8 of 8; survivor count (T/C endpoint: mean survival time, dose: 400.0 mg/kg/injection, schedule: Q01DX001 (ip), vehicle: Klucel (hydroxypropylcellulose) (HPC)): 0 of 8 and 4 of 8; T/C (T/C endpoint: mean survival time, dose: 400.0 mg/kg/injection, schedule: Q01DX001 (ip), vehicle: saline, evaluated on day 5): 75 and 132 % of control; T/C (T/C endpoint: mean survival time, dose: 400.0 mg/kg/injection, schedule: Q01DX001 (ip), vehicle: saline, evaluated on day 21): 130 % of control; T/C (T/C endpoint: mean survival time, dose: 400.0 mg/kg/injection, schedule: Q01DX001 (ip), vehicle: saline, evaluated on day 33): 124 % of control; survivor count (T/C endpoint: mean survival time, dose: 400.0 mg/kg/injection, schedule: Q01DX001 (ip), vehicle: saline): 2 of 8 and 3 of 8; survivor count (T/C endpoint: mean survival time, dose: 400.0 mg/kg/injection, schedule: Q01DX001 (ip), vehicle: water): 8 of 8; survivor count (T/C endpoint: mean survival time, dose: 500.0 mg/kg/injection, schedule: Q01DX001 (ip), vehicle: saline): 4 of 8; survivor count (T/C endpoint: mean survival time, dose: 500.0 mg/kg/injection, schedule: Q01DX Z (ip), vehicle: saline): 0 of 6; T/C (T/C endpoint: mean survival time, dose: 1120.0 mg/kg/injection, schedule: Q01DX001 (ip), vehicle: saline, evaluated on day 7): 132 % of control; T/C (T/C endpoint: mean survival time, dose: 1120.0 mg/kg/injection, schedule: Q01DX001 (ip), vehicle: saline, evaluated on day 20): 132 % of control; T/C (T/C endpoint: median survival time, dose: 4000.0 mg/kg/injection, schedule: Q01DX001 (oral), vehicle: saline): 126 % of control
